Assay results from paper PMC8980813.
These are yes or no findings as the source states them, for the method shown. In cells and extracts the contact can be indirect.

Molecular target: T1, Strep-METTL6 (human) (UniProt Q8TCB7)
T1 sequence: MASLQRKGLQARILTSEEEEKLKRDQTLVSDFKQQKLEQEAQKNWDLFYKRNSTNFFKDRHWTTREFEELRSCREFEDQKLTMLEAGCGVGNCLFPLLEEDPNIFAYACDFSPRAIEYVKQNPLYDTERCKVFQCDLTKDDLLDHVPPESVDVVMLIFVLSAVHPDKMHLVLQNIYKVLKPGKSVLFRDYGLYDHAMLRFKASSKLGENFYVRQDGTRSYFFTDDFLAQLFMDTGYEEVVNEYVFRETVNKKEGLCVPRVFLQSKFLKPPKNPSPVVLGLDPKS
Assay: pull-down

B1: endogenous mitochondrial seryl-tRNA synthetase (SARS2) (enzyme, UniProt Q9NP81 35-518)
chain: TTEKRNRNLLYEYAREGYSALPQLDIERFCACPEEAAHALELRKGELRSADLPAIISTWQELRQLQEQIRSLEEEKAAVTEAVRALLANQDSGEVQQDPKYQGLRARGREIRKELVHLYPREAQLEEQFYLQALKLPNQTHPDVPVGDESQARVLHMVGDKPVFSFQPRGHLEIGEKLDIIRQKRLSHVSGHRSYYLRGAGALLQHGLVNFTFNKLLRRGFTPMTVPDLLRGAVFEGCGMTPNANPSQIYNIDPARFKDLNLAGTAEVGLAGYFMDHTVAFRDLPVRMVCSSTCYRAETNTGQEPRGLYRVHHFTKVEMFGVTGPGLEQSSQLLEEFLSLQMEILTELGLHFRVLDMPTQELGLPAYRKFDIEAWMPGRGRFGEVTSASNCTDFQSRRLHIMFQTEAGELQFAHTVNATACAVPRLLIALLESNQQKDGSVLVPPALQSYLGTDRITAPTHVPLQYIGPNQPRKPGLPGQPAVS
binding: no binding
